Test results from patent US6281331 (dated 2001).

Test: general procedure: hybrid (solid and solution phase) peptide synthesis; 2-chlorotrityl chloride resin (super acid sensitive); HBTU/HOBT/DIEA (solid phase); HBTU/HOAT/EtPr2N (solution phase)
Conditions: late stage modification step

Substance: H-Glu(OtBu)-Lys(Boc)-Asn(trt)-Glu(OtBu)-Gln(trt)-Glu(OtBu) -Leu-Leu-Glu(OtBu)-Leu-Asp(tBu)-Lys(Boc)-Trp(Boc)-Ala -Ser(tBu)-Leu-Trp(Boc)-Asn(trt)-Trp(Boc)-NH2 (SEQ ID NO:19)
- final HPLC purity (HPLC): >95%
- step yield (run 1): 97.5%
- step yield (run 2): 96.6%
